This is one part of the list. These are further read-outs of the screen, such as a control signal, another cell line or another target. No call is given for them. The list favours compounds with an active or inconclusive main result. The note in brackets gives the kind of curve behind each potency; many fits are weak.
Assay: qHTS Assay for Lipid Storage Modulators in Drosophila S3 Cells;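 for cell number change: cells counted by Cell Tracker Red CMTPX staining in the red channel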
Settings: BODIPY lipid droplet fluorescence, 18-24 h; for cell number change: measured here: cell count max response, cells fed with added oleic acid
Summary of the method: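 Drosophila S3 cells got compounds at several concentrations plus oleic acid (400 uM solution). Laser-scanning cytometry with 488 nm excitation read lipid droplets at 500-530 nm and cells at 575-640 nm. Percent activity was relative to 20 uM Triacsin C.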

[1] = measured here: lipid fluorescence (Fed channel) AC50, cells fed with added oleic acid
[2] = measured here: cell number channel AC50, cells fed with added oleic acid

Structure (SMILES) | cell number change [%] | AC50 [1] | AC50 [2]
O=C(N/N=C/c1cccs1)c1cc(-c2ccncc2)nc2ccccc12 | 6.09 | 32600 nM [rising, single point] | 
CCC(=O)Nc1ccc2c(c1)nc(CCN1CCN(c3ccccn3)CC1)n2C | 31.2 |  | 517 nM [rising, full curve, poor fit]
CCN(C(=O)COC(=O)/C=C/c1ccccc1)C1CCCCC1 | 22.3 |  | 116 nM [rising, full curve, poor fit]
Cc1cc(C)c2cc(C#N)c(N3CCCN(C(=O)c4cnccn4)CC3)nc2c1 | -24.4 | 5170 nM [falling, single point] | 
N#CC1=C(N)Oc2cc(N)ccc2C1c1ccc(F)cc1F (configuration not stated) | -4.21 |  | 
Cc1ccc(NC(=O)CCCn2c(=O)oc3ccccc32)c(O)c1 | 54.9 | 517 nM [rising, full curve] | 23100 nM [rising, single point]
CCOC(=O)c1ccc(NC(=O)c2n[nH]c(=O)c3ccccc23)cc1 | 4.46 | 146 nM [falling, full curve, poor fit] | 
Fc1cccc(C2CC(c3cccc(Br)c3)Nc3nnnn32)c1 (configuration not stated) | -13 | 1460 nM [rising, full curve, poor fit] | 
CCOC(=O)[C@H]1[C@H]2COc3ccc(OC)cc3[C@@H]2N2C(=O)c3ccc(Cl)cc3NC(=O)[C@@]12C |  | 1840 nM [falling, partial curve, poor fit] | 
Cc1ccc(-n2nnnc2SCC(=O)Nc2ccc3c(c2)COC3=O)cc1C |  | 1840 nM [falling, partial curve] | 7310 nM [falling, single point]
COc1ccc(C(=O)NC(=O)Nc2ncccc2C)cc1 | 79.9 | 3660 nM [rising, full curve] | 29100 nM [rising, single point]
CC(C)Cn1c(N)c(C(=O)COC(=O)/C=C/c2cccs2)c(=O)n(C)c1=O | -30.8 |  | 32600 nM [falling, single point]
Cc1nc2cc(Cl)c(Cl)cc2nc1C | 19.7 | 2310 nM [rising, full curve] | 
FC(F)(F)c1cccc(CON=C2CCN(c3ncc(C(F)(F)F)cc3Cl)CC2)c1 |  | 29100 nM [rising, single point] | 
COc1cc(S(=O)(=O)Nc2ccc(C)cc2)ccc1N=Cc1c(C)c(C#N)c(=O)n(C)c1O | -41.8 |  | 18400 nM [falling, single point]
CNC(=O)Nc1cc(C)nn1C | 24.8 | 1640 nM [falling, partial curve] | 461 nM [falling, single point]

An excerpt from above, reduced to cell number change [%] and AC50 [1]:

| Structure (SMILES) | cell number change [%] | AC50 [1] |
| --- | --- | --- |
| N#CC1=C(N)Oc2cc(N)ccc2C1c1ccc(F)cc1F (configuration not stated) | -4.21 |  |
| Cc1ccc(NC(=O)CCCn2c(=O)oc3ccccc32)c(O)c1 | 54.9 | 517 nM [rising, full curve] |
